# From paper PMC4741301
# Amino acid sequences for entries named in this document (tags omitted). A change or cut given only in a name is not applied to a line headed by its entry.
# UniProt Q9P2M4: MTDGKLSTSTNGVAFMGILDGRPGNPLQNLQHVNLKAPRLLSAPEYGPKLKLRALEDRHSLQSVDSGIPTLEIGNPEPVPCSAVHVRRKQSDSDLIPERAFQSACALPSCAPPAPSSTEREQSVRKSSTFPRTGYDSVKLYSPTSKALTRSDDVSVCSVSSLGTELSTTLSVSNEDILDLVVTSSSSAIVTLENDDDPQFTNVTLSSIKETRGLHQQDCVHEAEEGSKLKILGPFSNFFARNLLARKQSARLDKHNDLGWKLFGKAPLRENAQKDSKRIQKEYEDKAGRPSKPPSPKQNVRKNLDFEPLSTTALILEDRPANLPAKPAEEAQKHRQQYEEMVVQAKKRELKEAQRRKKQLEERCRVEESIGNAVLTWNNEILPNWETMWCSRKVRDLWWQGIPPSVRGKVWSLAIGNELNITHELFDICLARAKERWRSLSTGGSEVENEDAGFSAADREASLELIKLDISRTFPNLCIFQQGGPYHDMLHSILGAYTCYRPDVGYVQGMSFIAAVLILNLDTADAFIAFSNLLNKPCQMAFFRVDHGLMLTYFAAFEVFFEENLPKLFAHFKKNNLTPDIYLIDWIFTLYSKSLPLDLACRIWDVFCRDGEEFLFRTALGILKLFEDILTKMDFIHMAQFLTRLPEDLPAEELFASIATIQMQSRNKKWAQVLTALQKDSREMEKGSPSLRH
# UniProt Q9Y296: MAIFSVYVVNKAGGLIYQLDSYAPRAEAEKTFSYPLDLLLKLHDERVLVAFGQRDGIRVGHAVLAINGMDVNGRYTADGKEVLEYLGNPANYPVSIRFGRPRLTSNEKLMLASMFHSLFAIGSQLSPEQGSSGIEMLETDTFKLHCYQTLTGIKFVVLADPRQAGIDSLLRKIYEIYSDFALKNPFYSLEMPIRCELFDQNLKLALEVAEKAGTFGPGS
# UniProt Q8WVT3: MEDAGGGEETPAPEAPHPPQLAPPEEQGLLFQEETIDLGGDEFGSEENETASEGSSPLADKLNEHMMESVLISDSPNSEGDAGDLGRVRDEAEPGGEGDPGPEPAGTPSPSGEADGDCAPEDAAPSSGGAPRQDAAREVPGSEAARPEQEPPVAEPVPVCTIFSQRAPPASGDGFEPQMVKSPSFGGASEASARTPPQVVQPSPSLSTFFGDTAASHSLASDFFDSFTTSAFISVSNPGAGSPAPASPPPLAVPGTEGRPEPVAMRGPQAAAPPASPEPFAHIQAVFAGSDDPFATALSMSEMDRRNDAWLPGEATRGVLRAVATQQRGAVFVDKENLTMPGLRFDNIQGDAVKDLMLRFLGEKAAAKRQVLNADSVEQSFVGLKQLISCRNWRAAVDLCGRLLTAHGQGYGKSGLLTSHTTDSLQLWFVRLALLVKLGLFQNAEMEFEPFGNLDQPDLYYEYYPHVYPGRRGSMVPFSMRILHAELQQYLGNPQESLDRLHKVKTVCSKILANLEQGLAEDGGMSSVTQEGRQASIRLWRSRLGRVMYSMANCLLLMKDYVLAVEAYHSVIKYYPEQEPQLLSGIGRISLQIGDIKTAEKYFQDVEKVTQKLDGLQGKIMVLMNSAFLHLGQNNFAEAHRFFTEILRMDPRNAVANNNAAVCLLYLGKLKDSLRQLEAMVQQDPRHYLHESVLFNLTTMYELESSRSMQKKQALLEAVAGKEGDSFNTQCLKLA
# UniProt Q9Y2L5: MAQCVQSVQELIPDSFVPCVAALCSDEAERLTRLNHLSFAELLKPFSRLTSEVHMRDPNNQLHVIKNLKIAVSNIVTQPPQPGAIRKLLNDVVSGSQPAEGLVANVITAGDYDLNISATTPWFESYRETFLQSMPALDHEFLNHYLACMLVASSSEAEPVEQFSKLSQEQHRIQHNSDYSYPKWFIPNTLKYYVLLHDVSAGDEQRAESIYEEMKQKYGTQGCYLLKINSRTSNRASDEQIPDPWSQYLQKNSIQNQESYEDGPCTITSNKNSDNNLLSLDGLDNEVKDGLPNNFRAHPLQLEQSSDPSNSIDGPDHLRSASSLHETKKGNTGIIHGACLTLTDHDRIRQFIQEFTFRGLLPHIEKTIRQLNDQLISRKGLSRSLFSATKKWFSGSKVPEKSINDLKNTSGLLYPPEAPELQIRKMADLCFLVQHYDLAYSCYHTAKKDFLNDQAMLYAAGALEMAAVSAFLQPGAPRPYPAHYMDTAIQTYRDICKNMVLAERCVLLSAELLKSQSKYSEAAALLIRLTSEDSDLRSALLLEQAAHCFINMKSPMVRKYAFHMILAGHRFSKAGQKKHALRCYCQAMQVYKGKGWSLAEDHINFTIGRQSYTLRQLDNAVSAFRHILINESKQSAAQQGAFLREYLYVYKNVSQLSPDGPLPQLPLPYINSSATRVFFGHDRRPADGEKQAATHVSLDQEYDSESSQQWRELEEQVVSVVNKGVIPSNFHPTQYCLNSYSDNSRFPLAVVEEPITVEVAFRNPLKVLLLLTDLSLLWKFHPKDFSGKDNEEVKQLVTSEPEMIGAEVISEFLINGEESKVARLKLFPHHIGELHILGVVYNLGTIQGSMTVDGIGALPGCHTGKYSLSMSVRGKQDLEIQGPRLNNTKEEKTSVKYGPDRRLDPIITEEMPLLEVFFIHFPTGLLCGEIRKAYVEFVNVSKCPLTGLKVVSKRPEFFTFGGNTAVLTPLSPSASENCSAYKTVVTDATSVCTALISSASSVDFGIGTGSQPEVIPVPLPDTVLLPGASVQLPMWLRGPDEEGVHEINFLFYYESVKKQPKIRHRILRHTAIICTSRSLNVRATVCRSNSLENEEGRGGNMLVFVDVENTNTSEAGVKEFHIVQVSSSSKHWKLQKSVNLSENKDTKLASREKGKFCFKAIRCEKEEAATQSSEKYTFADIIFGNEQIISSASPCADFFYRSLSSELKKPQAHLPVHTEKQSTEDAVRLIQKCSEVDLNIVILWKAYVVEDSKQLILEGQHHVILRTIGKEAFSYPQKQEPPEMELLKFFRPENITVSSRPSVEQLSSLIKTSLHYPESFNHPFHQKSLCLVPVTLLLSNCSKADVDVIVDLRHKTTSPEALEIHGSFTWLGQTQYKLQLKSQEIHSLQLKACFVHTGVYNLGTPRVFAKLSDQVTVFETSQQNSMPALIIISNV
# Columns and labels:
# myc‐BioID‐TBC1D14 [1] = target: myc‐BioID‐TBC1D14 (UniProt Q9P2M4); experiment: proximity labelling; BioID: sample denatured with 1% SDS, 1‐h streptavidin resin pulldown at room temperature, eluted in 2× Laemmli sample buffer plus 3 mM biotin; immunoblot
# myc‐BioID‐TBC1D14 [2] = target: myc‐BioID‐TBC1D14 (UniProt Q9P2M4); experiment: proximity labelling; BioID: HEK293A cells with myc‐BioID‐TBC1D14, 50 μM biotin overnight; half of the sample DENATURED with 1% SDS, streptavidin resin; mass spectrometry (iBAQ)
# myc‐BioID‐TBC1D14 [3] = target: myc‐BioID‐TBC1D14 (UniProt Q9P2M4); experiment: proximity labelling; BioID: HEK293A cells with myc‐BioID or myc‐BioID‐TBC1D14, 50 μM biotin overnight, lysed in TNTE; NON-denatured half on streptavidin resin; mass spectrometry (iBAQ)
binding (myc‐BioID‐TBC1D14 [1]),binding (myc‐BioID‐TBC1D14 [2]),binding (myc‐BioID‐TBC1D14 [3]),Substance
no binding,,,TRAPPC4 (from UniProt Q9Y296 1-219)
no binding,,,TRAPPC12/TTC15 (from UniProt Q8WVT3 1-735)
binds,binds,binds,TRAPPC8 (from UniProt Q9Y2L5 1-1435)

# Results are given in words; binding and its absence hold for the method and conditions named. In cells and extracts the contact can be indirect. A yes stands for co-enrichment or nearness to the bait. Other partners may have been found. For some assays here: A no says only that the protein was not detected with the bait.
